The text below walks through data of patent US20220298206 (published 2022).

The data set in a line: general procedure: peptide synthesis; Rink amide AM Resin (substitution 0.66 mill mole/gram).

Turning to Etelcalcetide, the “crude HPLC purity” value (late stage modification step, analytical HPLC, acetate salt) is 93.67%. For the same substance, the “final HPLC purity” value (whole synthesis, analytical HPLC, scale of the general procedure 1.21 kg resin, hydrochloride salt) was determined as 99.70%. Further, under “whole synthesis, hydrochloride salt”, the isolated mass is 252 grams. Under “whole synthesis, scale of the general procedure 1.21 kg resin, hydrochloride salt”, the isolated yield turned out to be 30.07%.
